Measurements as given in US20170189504A1, “NOVEL PEPTIDES AND COMBINATION OF PEPTIDES FOR USE IN IMMUNOTHERAPY AGAINST VARIOUS CANCERS” (immatics biotechnologies GmbH, priority 2015, published 2017).

Columns and labels:
HLA-A*02 = experiment: Identification and relative LC-MS quantitation of HLA-A*02-presented tumor-associated peptides on tissue samples (presentation profiles, Tables 13A, 13B, 15, FIG. 1); parameters: species or system human; key to Presentation score NHL / Presentation score CLL / Presentation score BRCA / Presentation score AML / Presentation score GB / Presentation score NSCLC / Presentation score GBC_CCC / Presentation score UEC / Presentation score MEL / Presentation score OSCAR / Presentation score GC / Presentation score UBC / Presentation score OC / Presentation score RCC / Presentation score CRC / Presentation score PCA / Presentation score HCC / Presentation score PC / Presentation score SCLC: specifically presented on tumors (++++); very highly over-presented on tumors compared to a panel of normal tissues (+++); highly over-presented on tumors compared to a panel of normal tissues (++); over-presented on tumors compared to a panel of normal tissues (+); conditions: for Presentation score MEL: melanoma (N = 7) vs panel of normal tissues (N = 262); for Peptide Presentation on cancer entities: Table 13A, HLA-A*02-binding tumor-associated peptides, cancer entities on which the peptide was found presented
source genes (mRNA) [1] = experiment: Gene and exon expression of source genes, TCGA tumor samples compared with normal tissue samples (Lonsdale, 2013) (Table 17); parameters: species or system human; conditions: for Over-expression category of source gene (target coverage), BLCA: BLCA = Bladder urothelial carcinoma (N = 408); for Over-expression category of source gene (target coverage), BLCA / Over-expression category of source gene (target coverage), CHOL / Over-expression category of source gene (target coverage), COAD / Over-expression category of source gene (target coverage), DLBC / Over-expression category of source gene (target coverage), ESCA / Over-expression category of source gene (target coverage), GBM / Over-expression category of source gene (target coverage), LAML / Over-expression category of source gene (target coverage), LGG / Over-expression category of source gene (target coverage), LIHC / Over-expression category of source gene (target coverage), LUAD / Over-expression category of source gene (target coverage), LUSC / Over-expression category of source gene (target coverage), OV / Over-expression category of source gene (target coverage), PAAD / Over-expression category of source gene (target coverage), READ / Over-expression category of source gene (target coverage), SKCM / Over-expression category of source gene (target coverage), STAD / Over-expression category of source gene (target coverage), UCEC: same cutoff; for Over-expression category of source gene (target coverage), BRCA: BRCA = Breast cancer (N = 1104), tumors more than 2-fold above highest 75% percentile of normal tissues; for Over-expression category of source gene (target coverage), CHOL: CHOL = Cholangiocarcinoma (N = 36); for Over-expression category of source gene (target coverage), COAD: COAD = Colon and rectal adenocarcinoma (N = 462); for Over-expression category of source gene (target coverage), DLBC: DLBC = Lymphoid neoplasm diffuse large B-cell lymphoma (N = 48); for Over-expression category of source gene (target coverage), ESCA: ESCA = Esophageal cancer (N = 185); for Over-expression category of source gene (target coverage), GBM: GBM = Glioblastoma multiforme (N = 169); for Over-expression category of source gene (target coverage), LAML: LAML = Acute Myeloid Leukemia (N = 173); for Over-expression category of source gene (target coverage), LGG: LGG = Lower grade glioma (N = 534); for Over-expression category of source gene (target coverage), LIHC: LIHC = Liver hepatocellular carcinoma (N = 374); for Over-expression category of source gene (target coverage), LUAD: LUAD = Lung adenocarcinoma (N = 517); for Over-expression category of source gene (target coverage), LUSC: LUSC = Lung squamous cell carcinoma (N = 503); for Over-expression category of source gene (target coverage), OV: OV = Ovarian serous cystadenocarcinoma (N = 309); for Over-expression category of source gene (target coverage), PAAD: PAAD = Pancreatic ductal adenocarcinoma (N = 179); for Over-expression category of source gene (target coverage), READ: READ = Colon and rectal adenocarcinoma (N = 167); for Over-expression category of source gene (target coverage), SKCM: SKCM = Skin cutaneous melanoma (N = 473); for Over-expression category of source gene (target coverage), STAD: STAD = Stomach adenocarcinoma (N = 415); for Over-expression category of source gene (target coverage), UCEC: UCEC = Uterine corpus endometrial carcinoma (N = 546)
source genes (mRNA) [2] = experiment: Expression profiling of source genes by in-house RNASeq of tumor and normal tissues (Table 18, FIG. 2); parameters: species or system human; key: very highly over-expressed in tumors compared to a panel of normal tissues (+++); highly over-expressed in tumors compared to a panel of normal tissues (++); over-expressed in tumors compared to a panel of normal tissues (+); conditions: source gene of peptide; for Expression score BRCA: BRCA tumors vs panel of normal tissues; for Expression score AML: acute myeloid leukemia (N = 11) vs panel of normal tissues; for Expression score CRC: colorectal cancer (N = 20) vs panel of normal tissues; for Expression score OSCAR: esophageal cancer incl. gastric-esophageal junction (N = 11) vs panel of normal tissues; for Expression score GC: gastric cancer (N = 11) vs panel of normal tissues; for Expression score GB: glioblastoma (N = 24) vs panel of normal tissues; for Expression score NHL: non-Hodgkin lymphoma (N = 10) vs panel of normal tissues; for Expression score NSCLC: non-small cell lung cancer (N = 11) vs panel of normal tissues; for Expression score OC: ovarian cancer (N = 12) vs panel of normal tissues; for Expression score SCLC: small cell lung cancer (N = 10) vs panel of normal tissues; for Expression score UBC: urinary bladder cancer (N = 10) vs panel of normal tissues; for Expression score UEC: uterine cancer (N = 10) vs panel of normal tissues

290: peptide found in BUB1B (gene looked up) (KIVDFSYSV; listed as Homo sapiens) [compound 290]
Presentation score BRCA (HLA-A*02; HLA-A*02 peptides, breast cancer (N = 17) vs panel of normal tissues (N = 262)): ++
Presentation score MEL (HLA-A*02; HLA-A*02 peptides): ++
Peptide Presentation on cancer entities (HLA-A*02): GB, GC, NSCLC, HCC, OSCAR, OC, SCLC, UBC, UEC, BRCA, MEL, CRC, AML, NHL
Over-expression category of source gene (target coverage), BLCA (source genes (mRNA) [1]): A (>=50% of tumors above the cutoff)
Over-expression category of source gene (target coverage), BRCA (source genes (mRNA) [1]): A (>=50% of tumors above the cutoff)
Over-expression category of source gene (target coverage), CHOL (source genes (mRNA) [1]): B (>= 20% of tumors above the cutoff, but <50%)
Over-expression category of source gene (target coverage), COAD (source genes (mRNA) [1]): A (>=50% of tumors above the cutoff)
Over-expression category of source gene (target coverage), DLBC (source genes (mRNA) [1]): A (>=50% of tumors above the cutoff)
Over-expression category of source gene (target coverage), ESCA (source genes (mRNA) [1]): A (>=50% of tumors above the cutoff)
Over-expression category of source gene (target coverage), GBM (source genes (mRNA) [1]): B (>= 20% of tumors above the cutoff, but <50%)
Over-expression category of source gene (target coverage), LAML (source genes (mRNA) [1]): A (>=50% of tumors above the cutoff)
Over-expression category of source gene (target coverage), LGG (source genes (mRNA) [1]): C (>=5% of tumors above the cutoff, but <20%)
Over-expression category of source gene (target coverage), LIHC (source genes (mRNA) [1]): C (>=5% of tumors above the cutoff, but <20%)
Over-expression category of source gene (target coverage), LUAD (source genes (mRNA) [1]): B (>= 20% of tumors above the cutoff, but <50%)
Over-expression category of source gene (target coverage), LUSC (source genes (mRNA) [1]): A (>=50% of tumors above the cutoff)
Over-expression category of source gene (target coverage), OV (source genes (mRNA) [1]): A (>=50% of tumors above the cutoff)
Over-expression category of source gene (target coverage), PAAD (source genes (mRNA) [1]): C (>=5% of tumors above the cutoff, but <20%)
Over-expression category of source gene (target coverage), READ (source genes (mRNA) [1]): A (>=50% of tumors above the cutoff)
Over-expression category of source gene (target coverage), SKCM (source genes (mRNA) [1]): A (>=50% of tumors above the cutoff)
Over-expression category of source gene (target coverage), STAD (source genes (mRNA) [1]): A (>=50% of tumors above the cutoff)
Over-expression category of source gene (target coverage), UCEC (source genes (mRNA) [1]): A (>=50% of tumors above the cutoff)
Expression score BRCA (source genes (mRNA) [2]): +
Expression score AML (source genes (mRNA) [2]): +
Expression score CRC (source genes (mRNA) [2]): +
Expression score OSCAR (source genes (mRNA) [2]): ++
Expression score GC (source genes (mRNA) [2]): +
Expression score GB (source genes (mRNA) [2]): +
Expression score NHL (source genes (mRNA) [2]): +++
Expression score NSCLC (source genes (mRNA) [2]): +
Expression score OC (source genes (mRNA) [2]): ++
Expression score SCLC (source genes (mRNA) [2]): +++
Expression score UBC (source genes (mRNA) [2]): +
Expression score UEC (source genes (mRNA) [2]): +

291: peptide found in TOP2A (gene looked up) (KLDETGNSL; listed as Homo sapiens) [compound 291]
Presentation score AML (HLA-A*02; HLA-A*02 peptides, acute myeloid leukemia (N = 18) vs panel of normal tissues (N = 262)): ++
Presentation score GB (HLA-A*02; HLA-A*02 peptides, glioblastoma (N = 41) vs panel of normal tissues (N = 262)): +
Presentation score HCC (HLA-A*02; HLA-A*02 peptides, hepatocellular carcinoma (N = 16) vs panel of normal tissues (N = 262)): +
Presentation score MEL (HLA-A*02; HLA-A*02 peptides): +++
Presentation score NHL (HLA-A*02; HLA-A*02 peptides, non-Hodgkin lymphoma (N = 18) vs panel of normal tissues (N = 262)): ++
Presentation score OC (HLA-A*02; HLA-A*02 peptides, ovarian cancer (N = 20) vs panel of normal tissues (N = 262)): ++
Presentation score SCLC (HLA-A*02; HLA-A*02 peptides, small cell lung cancer (N = 19) vs panel of normal tissues (N = 262)): +
Presentation score UEC (HLA-A*02; HLA-A*02 peptides, uterine cancer (N = 15) vs panel of normal tissues (N = 262)): +++
Peptide Presentation on cancer entities (HLA-A*02): GB, GC, NSCLC, HCC, CLL, OSCAR, OC, SCLC, UBC, UEC, MEL, RCC, CRC, PC, AML, NHL
Over-expression category of source gene (target coverage), BLCA (source genes (mRNA) [1]): B (>= 20% of tumors above the cutoff, but <50%)
Over-expression category of source gene (target coverage), BRCA (source genes (mRNA) [1]): A (>=50% of tumors above the cutoff)
Over-expression category of source gene (target coverage), CHOL (source genes (mRNA) [1]): C (>=5% of tumors above the cutoff, but <20%)
Over-expression category of source gene (target coverage), COAD (source genes (mRNA) [1]): A (>=50% of tumors above the cutoff)
Over-expression category of source gene (target coverage), DLBC (source genes (mRNA) [1]): B (>= 20% of tumors above the cutoff, but <50%)
Over-expression category of source gene (target coverage), ESCA (source genes (mRNA) [1]): A (>=50% of tumors above the cutoff)
Over-expression category of source gene (target coverage), GBM (source genes (mRNA) [1]): B (>= 20% of tumors above the cutoff, but <50%)
Over-expression category of source gene (target coverage), LAML (source genes (mRNA) [1]): A (>=50% of tumors above the cutoff)
Over-expression category of source gene (target coverage), LGG (source genes (mRNA) [1]): C (>=5% of tumors above the cutoff, but <20%)
Over-expression category of source gene (target coverage), LIHC (source genes (mRNA) [1]): C (>=5% of tumors above the cutoff, but <20%)
Over-expression category of source gene (target coverage), LUAD (source genes (mRNA) [1]): B (>= 20% of tumors above the cutoff, but <50%)
Over-expression category of source gene (target coverage), LUSC (source genes (mRNA) [1]): A (>=50% of tumors above the cutoff)
Over-expression category of source gene (target coverage), OV (source genes (mRNA) [1]): C (>=5% of tumors above the cutoff, but <20%)
Over-expression category of source gene (target coverage), PAAD (source genes (mRNA) [1]): C (>=5% of tumors above the cutoff, but <20%)
Over-expression category of source gene (target coverage), READ (source genes (mRNA) [1]): A (>=50% of tumors above the cutoff)
Over-expression category of source gene (target coverage), SKCM (source genes (mRNA) [1]): B (>= 20% of tumors above the cutoff, but <50%)
Over-expression category of source gene (target coverage), STAD (source genes (mRNA) [1]): A (>=50% of tumors above the cutoff)
Over-expression category of source gene (target coverage), UCEC (source genes (mRNA) [1]): B (>= 20% of tumors above the cutoff, but <50%)
Expression score BRCA (source genes (mRNA) [2]): ++
Expression score AML (source genes (mRNA) [2]): +
Expression score CRC (source genes (mRNA) [2]): ++
Expression score OSCAR (source genes (mRNA) [2]): +++
Expression score GBC_CCC (source genes (mRNA) [2]; gallbladder adenocarcinoma and cholangiocarcinoma (N = 3) vs panel of normal tissues): +
Expression score GC (source genes (mRNA) [2]): +
Expression score GB (source genes (mRNA) [2]): ++
Expression score NHL (source genes (mRNA) [2]): +++
Expression score NSCLC (source genes (mRNA) [2]): +++
Expression score OC (source genes (mRNA) [2]): ++
Expression score PC (source genes (mRNA) [2]; pancreatic cancer (N = 26) vs panel of normal tissues): +
Expression score SCLC (source genes (mRNA) [2]): +++
Expression score UBC (source genes (mRNA) [2]): +
Expression score UEC (source genes (mRNA) [2]): +

For some assays here: Expression grades refer to the transcript from which the peptide derives; gene names, where given, were looked up from the sequence.
